Measurements reported in PubChem BioAssay AID1259254 (NCATS, 2017)

Test: 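Genome-wide screen for genes that prevent DNA re-replication in cancer cells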 (primary screen)
Cells: human HCT116 colorectal cancer cells
Reagent: single siRNA against human genes
Duration: 3 days
Read-out: 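Imaged Hoechst DNA stain sorts each cell into a cycle phase by DNA amount; per plate, G2 fraction set to 0% for non-targeting and 100% for GMNN siRNA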
Direction: G2 robust z-score: higher = more G2 cells, more excess DNA replication
Call rule: 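Active siRNAs have a G2 robust z of 5 or more median absolute deviations over the median, which in these data means about 38% or higher of GMNN control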
The deposit covers about 59,000 reagents; shown is a random part of them. Over the whole deposit, about 1,550 (2.6%) got an active call. 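G2 share is only a proxy for re-replication; each gene was hit by three separate siRNAs, and active genes were retested.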 Entries without a mark were called inactive. Not all columns of the deposit are shown. Not stated in the record: the amount of reagent.

Target gene | PubChem SID | G2 robust z-score
DNAJC6 | SID160723200 | 1.35
DNAJC6 | SID160723201 | -1.01
DNAJC6 | SID160723202 | -0.134
WDSUB1 | SID160759119 | -1.07
WDSUB1 | SID160759120 | 3.51
WDSUB1 | SID160759121 | -0.681
YTHDC1 | SID160754080 | 0.627
YTHDC1 | SID160754081 | 2.95
YTHDC1 | SID160754082 | 0.249
PROS1 | SID160715069 | 1.03
PROS1 | SID160715070 | -0.618
PROS1 | SID160715071 | -0.688
DHX8 | SID160753464 | -1.28
DHX8 | SID160753475 | 1.27
DHX8 | SID160753484 | -0.181
HDAC4 | SID160723008 | 0.433
HDAC4 | SID160723009 | -1.15
HDAC4 | SID160723010 | -0.824
HDAC4 | SID160734232 | 1.18
HDAC4 | SID160771198 | -0.479
HDAC4 | SID160771199 | -0.0024
OPN4 | SID160754647 | -0.311
OPN4 | SID160754648 | 1.29
OPN4 | SID160754649 | 2.17
GRIA2 | SID160774175 | 0.297
GRIA2 | SID160774183 | 0.118
GRIA2 | SID160774193 | 0.688
MKS1 | SID160742461 | 1.53
MKS1 | SID160742462 | 0.756
MKS1 | SID160742463 | -0.771
TRIM27 | SID160715833 | 0.307
TRIM27 | SID160715835 | 0.134
TRIM27 | SID160715836 | -0.57
TRIM69 | SID160757843 | 4.03
TRIM69 | SID160757844 | 4.28
TRIM69 | SID160757845 | -0.904
TMC4 | SID160758569 | -1.48
TMC4 | SID160758570 | 0.287
TMC4 | SID160758571 | -0.224
DUSP23 | SID160724449 | -0.762
DUSP23 | SID160731476 | -1.33
DUSP23 | SID160742537 | 2.1
SEMA4A | SID160747585 | 1.78
SEMA4A | SID160747586 | 2.24
SEMA4A | SID160747587 | 0.0922
PMS2P2 | SID160723987 | 0.769
PMS2P2 | SID160723988 | 0.605
PMS2P2 | SID160723989 | 0.413
PPP1R9A | SID160743880 | -0.891
PPP1R9A | SID160743882 | 1.92
PPP1R9A | SID160743883 | -0.454
PDCL3 | SID160748505 | 0.107
PDCL3 | SID160748506 | -0.719
PDCL3 | SID160748508 | 2.82
WNK2 | SID160748335 | -0.513
WNK2 | SID160748336 | 0.388
WNK2 | SID160748337 | 2.53
ERC1 | SID160735407 | -0.339
ERC1 | SID160735408 | -0.539
ERC1 | SID160735409 | 4.39
NKD2 | SID160753249 | -0.624
NKD2 | SID160753250 | -0.216
NKD2 | SID160753251 | 1.02
ZMAT2 | SID160759338 | 1.25
ZMAT2 | SID160759339 | 1.17
ZMAT2 | SID160759340 | 0.819
MRPL23 | SID160716067 | 1.11
MRPL23 | SID160716068 | -0.616
MRPL23 | SID160733710 | -0.434

Reprinted from the listing (3 entries):
Target gene | PubChem SID | G2 robust z-score
PROS1 | SID160715069 | 1.03
PROS1 | SID160715070 | -0.618
PROS1 | SID160715071 | -0.688
